This test addresses T1, p140Cap adaptor protein (UniProt Q9QWI6).
T1 sequence: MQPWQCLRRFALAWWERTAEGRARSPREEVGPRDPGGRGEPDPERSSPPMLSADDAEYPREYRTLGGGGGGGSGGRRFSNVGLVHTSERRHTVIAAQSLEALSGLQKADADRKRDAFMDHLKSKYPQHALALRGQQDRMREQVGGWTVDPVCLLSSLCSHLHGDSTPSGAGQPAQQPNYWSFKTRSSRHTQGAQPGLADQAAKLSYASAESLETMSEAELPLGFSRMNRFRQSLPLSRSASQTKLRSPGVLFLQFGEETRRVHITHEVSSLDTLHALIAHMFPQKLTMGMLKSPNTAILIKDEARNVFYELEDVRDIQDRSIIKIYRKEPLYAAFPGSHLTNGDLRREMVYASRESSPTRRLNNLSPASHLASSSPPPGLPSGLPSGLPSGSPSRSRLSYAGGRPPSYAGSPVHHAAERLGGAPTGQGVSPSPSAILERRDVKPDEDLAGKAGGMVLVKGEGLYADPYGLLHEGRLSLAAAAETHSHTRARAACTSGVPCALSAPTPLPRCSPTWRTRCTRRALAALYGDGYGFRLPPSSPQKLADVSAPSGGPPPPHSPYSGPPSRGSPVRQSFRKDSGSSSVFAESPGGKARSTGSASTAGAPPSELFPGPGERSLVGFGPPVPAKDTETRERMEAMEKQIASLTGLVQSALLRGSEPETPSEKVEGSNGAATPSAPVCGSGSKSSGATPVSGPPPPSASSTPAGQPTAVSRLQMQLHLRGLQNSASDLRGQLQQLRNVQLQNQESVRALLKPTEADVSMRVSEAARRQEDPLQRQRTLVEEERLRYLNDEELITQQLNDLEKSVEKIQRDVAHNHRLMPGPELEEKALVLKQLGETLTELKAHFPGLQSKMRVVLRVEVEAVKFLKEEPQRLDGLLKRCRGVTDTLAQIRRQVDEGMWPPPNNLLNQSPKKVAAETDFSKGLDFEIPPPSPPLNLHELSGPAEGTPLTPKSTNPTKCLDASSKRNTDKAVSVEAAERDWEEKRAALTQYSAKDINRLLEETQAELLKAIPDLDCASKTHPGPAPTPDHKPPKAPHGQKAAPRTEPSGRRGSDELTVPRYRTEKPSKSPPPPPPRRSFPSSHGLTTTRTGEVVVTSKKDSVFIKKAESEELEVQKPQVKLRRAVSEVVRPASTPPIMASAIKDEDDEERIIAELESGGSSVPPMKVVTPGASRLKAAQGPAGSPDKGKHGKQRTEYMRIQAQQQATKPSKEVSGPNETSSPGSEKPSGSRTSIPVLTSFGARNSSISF
Kind of test: co-IP; p140Cap immunoprecipitates (p140Cap Mab on protein G Dynabeads) from p140 and mock TUBO cell extracts, Western blot with specific antibodies. (In general: A western blot detects proteins with antibodies after separation by electrophoresis.)

Results are given in words; binding and its absence hold for the method and conditions named. Binding seen in cells or lysates may run through a third protein.

Turning to “Talin (mouse (endogenous in TUBO cells))”, the binding result is recorded as “no binding”.

(Values after PMC6803390.)
